Experimental data taken from patent EP0997137B1 (Société des Produits Nestlé S.A., priority 1998, dated 2000).
For at least one compound, name, drawing or mass did not settle the structure.

Test system: TNF-α secretion of keratinocytes which are treated with TPA
Experiment: TNF-α secretion by TPA-treated immortalized human keratinocytes (ELISA of supernatant)
Format: cell-based
Method: These keratinocytes (cf. WO97/23602) are treated in this connection with inflammation-promoting substances, more specifically with a known skin irritant in the form of a phorbol ester (12-O-tetradecanoylphorbol acetate, abbreviated to TPA), and as a response to this treatment they display a typical inflammatory metabolic reaction, in particular an increase in the secretion of the inflammation-promoting cytokine TNF-α (tumour necrosis factor alpha).
A substance which inhibits the secretion of TNF-α in the case of TPA-treated keratinocytes in the above model in a dose-dependent manner is regarded as a potentially anti-inflammatory substance.
Specifically, the test is carried out by subjecting in vitro human keratinocytes, immortalized in culture, to an inflammation-promoting treatment using the abovementioned 12-O-tetradecanoylphorbol 13-acetate (TPA). […]
During the last 24 h of the above mentioned incubation, TPA in ethanol or a corresponding amount of ethanol was added in an amount of 10 ng/ml. The supernatants were then isolated and, by means of a known ELISA assay (Ruwag AG, Zurich, Switzerland) using specific antibodies to TNF-α (BioSource Inter., US, catalogue numbers KHC0012 and KHC3013), the concentration of TNF-α in the supernatant was determined.

## O=Cc1ccc2c(c1)OCO2 [piperonal, 3,4-(methylenedioxy)benzaldehyde]
TPA + 0.01% of piperonal
  % inhibition: none
Result in words, compared with hydrocortisone
  inhibiting effect on the TNF-α secretion of keratinocytes which are treated with TPA: strong inhibiting effect
